Article doi:10.1101/2022.11.06.515368
These are yes or no findings as the source states them, for the method shown. Binding seen in cells or lysates may run through a third protein. Here binding means that the protein was enriched with, or labelled near, the bait; the list need not be complete.

By UniProt entry, the sequences of proteins in these tests, tags left out.
UniProt O95071: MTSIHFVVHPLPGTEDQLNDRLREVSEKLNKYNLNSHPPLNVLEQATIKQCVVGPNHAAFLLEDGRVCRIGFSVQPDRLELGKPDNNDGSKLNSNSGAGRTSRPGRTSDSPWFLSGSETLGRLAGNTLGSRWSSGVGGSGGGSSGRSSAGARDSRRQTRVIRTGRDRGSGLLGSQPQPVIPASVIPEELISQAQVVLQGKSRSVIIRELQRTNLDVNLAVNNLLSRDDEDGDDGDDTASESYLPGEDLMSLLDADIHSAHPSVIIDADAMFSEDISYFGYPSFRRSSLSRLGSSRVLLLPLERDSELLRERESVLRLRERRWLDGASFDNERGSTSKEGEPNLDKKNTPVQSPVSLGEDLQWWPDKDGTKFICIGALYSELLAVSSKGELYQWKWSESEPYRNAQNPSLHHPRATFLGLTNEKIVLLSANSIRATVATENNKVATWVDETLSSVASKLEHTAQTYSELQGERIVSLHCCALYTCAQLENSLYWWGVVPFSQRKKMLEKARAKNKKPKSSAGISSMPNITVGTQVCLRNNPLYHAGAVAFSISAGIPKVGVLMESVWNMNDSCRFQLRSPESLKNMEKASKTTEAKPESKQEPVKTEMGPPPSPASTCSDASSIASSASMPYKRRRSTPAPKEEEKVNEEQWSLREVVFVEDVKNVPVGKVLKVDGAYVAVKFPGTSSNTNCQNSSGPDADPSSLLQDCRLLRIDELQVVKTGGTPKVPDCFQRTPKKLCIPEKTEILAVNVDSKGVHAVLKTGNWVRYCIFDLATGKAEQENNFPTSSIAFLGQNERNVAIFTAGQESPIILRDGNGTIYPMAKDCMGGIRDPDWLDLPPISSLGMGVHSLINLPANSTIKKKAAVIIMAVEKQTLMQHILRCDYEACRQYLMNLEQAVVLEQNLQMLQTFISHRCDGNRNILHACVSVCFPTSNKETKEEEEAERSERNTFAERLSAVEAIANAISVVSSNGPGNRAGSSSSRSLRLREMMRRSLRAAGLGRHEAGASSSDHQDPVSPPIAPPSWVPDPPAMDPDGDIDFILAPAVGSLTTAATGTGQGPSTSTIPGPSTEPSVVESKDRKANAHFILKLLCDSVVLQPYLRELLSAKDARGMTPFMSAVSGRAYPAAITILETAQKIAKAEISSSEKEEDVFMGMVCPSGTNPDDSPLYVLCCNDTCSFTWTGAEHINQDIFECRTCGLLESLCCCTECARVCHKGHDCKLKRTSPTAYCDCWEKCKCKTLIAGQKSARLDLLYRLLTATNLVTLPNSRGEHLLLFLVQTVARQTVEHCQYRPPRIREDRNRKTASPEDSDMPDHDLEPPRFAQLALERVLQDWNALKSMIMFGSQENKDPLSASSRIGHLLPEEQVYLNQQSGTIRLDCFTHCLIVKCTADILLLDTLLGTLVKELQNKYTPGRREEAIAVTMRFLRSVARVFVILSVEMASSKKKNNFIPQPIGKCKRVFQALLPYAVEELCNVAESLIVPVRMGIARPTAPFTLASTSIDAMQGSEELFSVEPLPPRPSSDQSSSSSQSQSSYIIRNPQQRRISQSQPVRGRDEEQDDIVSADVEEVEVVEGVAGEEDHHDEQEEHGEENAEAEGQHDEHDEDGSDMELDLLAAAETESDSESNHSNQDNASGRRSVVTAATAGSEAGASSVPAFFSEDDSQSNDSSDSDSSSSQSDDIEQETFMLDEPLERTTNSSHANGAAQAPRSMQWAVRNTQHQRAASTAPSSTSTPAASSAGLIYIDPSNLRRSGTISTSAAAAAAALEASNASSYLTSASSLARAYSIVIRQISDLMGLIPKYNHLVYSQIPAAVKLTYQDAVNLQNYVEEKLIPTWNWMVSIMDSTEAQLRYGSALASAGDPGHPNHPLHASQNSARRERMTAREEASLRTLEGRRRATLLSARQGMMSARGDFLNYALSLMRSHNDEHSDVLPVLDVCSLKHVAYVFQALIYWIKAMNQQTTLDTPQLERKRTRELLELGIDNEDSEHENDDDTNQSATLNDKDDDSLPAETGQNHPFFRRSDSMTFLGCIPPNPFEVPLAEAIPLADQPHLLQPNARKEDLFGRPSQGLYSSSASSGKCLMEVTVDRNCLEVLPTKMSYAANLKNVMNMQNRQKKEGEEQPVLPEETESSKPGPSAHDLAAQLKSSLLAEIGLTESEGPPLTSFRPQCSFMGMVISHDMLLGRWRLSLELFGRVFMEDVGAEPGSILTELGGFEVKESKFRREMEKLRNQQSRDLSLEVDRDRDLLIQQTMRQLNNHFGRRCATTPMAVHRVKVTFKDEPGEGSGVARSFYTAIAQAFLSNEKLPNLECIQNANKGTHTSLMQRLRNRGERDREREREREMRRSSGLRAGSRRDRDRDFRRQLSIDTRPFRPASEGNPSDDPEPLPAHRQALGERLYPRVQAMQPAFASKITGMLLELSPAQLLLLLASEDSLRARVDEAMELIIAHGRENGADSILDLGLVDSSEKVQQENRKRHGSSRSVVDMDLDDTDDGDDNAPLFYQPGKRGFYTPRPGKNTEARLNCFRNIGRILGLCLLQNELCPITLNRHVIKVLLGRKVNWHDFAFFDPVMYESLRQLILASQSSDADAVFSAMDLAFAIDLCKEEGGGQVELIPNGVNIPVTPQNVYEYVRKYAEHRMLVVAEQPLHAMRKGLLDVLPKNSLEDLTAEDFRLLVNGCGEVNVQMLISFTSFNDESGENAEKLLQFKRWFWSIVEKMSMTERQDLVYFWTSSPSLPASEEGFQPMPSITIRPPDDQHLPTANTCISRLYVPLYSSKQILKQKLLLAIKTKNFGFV
UniProt P53350: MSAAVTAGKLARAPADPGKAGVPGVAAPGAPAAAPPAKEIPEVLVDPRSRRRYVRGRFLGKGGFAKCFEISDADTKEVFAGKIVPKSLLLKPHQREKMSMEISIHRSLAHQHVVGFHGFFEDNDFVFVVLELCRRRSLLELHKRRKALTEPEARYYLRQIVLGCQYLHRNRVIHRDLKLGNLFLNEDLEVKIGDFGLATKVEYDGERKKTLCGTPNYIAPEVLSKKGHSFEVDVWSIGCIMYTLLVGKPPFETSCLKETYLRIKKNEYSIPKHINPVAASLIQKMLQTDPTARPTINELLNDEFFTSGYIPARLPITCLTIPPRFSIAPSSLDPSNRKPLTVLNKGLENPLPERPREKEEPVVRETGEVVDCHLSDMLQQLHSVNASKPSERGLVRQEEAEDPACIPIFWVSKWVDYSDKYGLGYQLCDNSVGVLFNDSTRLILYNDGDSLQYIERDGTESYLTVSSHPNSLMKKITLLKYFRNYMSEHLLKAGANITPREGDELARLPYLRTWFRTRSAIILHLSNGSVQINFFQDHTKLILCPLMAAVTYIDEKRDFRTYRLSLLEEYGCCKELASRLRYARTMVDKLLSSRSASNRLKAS
UniProt O43684: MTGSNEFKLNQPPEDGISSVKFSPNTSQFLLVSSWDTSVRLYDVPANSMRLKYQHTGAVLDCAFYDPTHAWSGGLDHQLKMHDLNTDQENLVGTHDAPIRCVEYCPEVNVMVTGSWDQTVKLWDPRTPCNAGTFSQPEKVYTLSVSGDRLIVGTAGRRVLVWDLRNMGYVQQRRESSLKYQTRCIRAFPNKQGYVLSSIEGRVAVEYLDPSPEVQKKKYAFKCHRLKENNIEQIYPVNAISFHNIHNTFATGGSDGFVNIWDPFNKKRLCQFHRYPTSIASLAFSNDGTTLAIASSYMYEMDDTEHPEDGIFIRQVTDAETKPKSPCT
UniProt O43683: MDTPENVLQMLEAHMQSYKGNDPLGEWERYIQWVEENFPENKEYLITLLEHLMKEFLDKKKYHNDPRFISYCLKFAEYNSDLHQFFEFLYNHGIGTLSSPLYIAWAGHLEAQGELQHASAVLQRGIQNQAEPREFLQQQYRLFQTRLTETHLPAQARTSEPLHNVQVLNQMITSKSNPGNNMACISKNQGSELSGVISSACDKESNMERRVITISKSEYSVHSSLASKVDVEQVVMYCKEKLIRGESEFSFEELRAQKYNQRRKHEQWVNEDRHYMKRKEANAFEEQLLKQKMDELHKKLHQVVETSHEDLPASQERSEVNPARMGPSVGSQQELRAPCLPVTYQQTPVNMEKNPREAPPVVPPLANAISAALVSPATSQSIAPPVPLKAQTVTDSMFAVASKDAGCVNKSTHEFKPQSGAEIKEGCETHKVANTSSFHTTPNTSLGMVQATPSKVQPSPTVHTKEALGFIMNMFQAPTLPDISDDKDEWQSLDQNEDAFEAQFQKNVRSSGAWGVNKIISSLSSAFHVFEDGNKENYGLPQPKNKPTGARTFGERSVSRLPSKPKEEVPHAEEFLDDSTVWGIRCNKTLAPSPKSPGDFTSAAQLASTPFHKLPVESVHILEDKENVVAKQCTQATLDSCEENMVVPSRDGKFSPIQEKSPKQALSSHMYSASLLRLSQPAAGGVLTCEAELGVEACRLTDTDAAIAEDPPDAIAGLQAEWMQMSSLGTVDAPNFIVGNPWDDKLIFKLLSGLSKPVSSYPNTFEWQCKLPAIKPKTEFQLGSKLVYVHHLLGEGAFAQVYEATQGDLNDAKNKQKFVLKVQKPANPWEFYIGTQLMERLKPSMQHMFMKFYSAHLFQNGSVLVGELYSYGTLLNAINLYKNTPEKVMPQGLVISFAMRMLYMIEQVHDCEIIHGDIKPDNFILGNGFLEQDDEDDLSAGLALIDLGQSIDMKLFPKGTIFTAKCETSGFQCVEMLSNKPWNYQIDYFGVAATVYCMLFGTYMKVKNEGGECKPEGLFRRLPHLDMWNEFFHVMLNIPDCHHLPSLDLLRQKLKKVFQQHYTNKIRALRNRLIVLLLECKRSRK
UniProt O00139: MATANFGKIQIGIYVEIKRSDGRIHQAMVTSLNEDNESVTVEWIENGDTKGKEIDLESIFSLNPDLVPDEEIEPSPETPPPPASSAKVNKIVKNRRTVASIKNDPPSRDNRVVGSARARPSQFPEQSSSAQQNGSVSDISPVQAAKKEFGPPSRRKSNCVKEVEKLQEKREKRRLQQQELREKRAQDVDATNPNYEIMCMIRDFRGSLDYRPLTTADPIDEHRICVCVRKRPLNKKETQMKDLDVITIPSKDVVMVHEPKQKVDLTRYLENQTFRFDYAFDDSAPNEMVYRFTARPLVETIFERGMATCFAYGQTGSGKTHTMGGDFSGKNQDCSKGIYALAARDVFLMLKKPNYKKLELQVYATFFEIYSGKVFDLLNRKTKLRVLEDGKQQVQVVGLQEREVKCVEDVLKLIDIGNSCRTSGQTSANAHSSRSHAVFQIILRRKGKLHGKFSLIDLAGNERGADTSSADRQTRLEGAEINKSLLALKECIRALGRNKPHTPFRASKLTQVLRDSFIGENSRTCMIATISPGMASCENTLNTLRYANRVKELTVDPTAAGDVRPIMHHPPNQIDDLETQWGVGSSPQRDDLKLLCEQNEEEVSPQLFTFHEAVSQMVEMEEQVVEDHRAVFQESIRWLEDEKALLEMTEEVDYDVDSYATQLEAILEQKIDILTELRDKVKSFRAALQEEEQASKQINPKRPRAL
UniProt O60566: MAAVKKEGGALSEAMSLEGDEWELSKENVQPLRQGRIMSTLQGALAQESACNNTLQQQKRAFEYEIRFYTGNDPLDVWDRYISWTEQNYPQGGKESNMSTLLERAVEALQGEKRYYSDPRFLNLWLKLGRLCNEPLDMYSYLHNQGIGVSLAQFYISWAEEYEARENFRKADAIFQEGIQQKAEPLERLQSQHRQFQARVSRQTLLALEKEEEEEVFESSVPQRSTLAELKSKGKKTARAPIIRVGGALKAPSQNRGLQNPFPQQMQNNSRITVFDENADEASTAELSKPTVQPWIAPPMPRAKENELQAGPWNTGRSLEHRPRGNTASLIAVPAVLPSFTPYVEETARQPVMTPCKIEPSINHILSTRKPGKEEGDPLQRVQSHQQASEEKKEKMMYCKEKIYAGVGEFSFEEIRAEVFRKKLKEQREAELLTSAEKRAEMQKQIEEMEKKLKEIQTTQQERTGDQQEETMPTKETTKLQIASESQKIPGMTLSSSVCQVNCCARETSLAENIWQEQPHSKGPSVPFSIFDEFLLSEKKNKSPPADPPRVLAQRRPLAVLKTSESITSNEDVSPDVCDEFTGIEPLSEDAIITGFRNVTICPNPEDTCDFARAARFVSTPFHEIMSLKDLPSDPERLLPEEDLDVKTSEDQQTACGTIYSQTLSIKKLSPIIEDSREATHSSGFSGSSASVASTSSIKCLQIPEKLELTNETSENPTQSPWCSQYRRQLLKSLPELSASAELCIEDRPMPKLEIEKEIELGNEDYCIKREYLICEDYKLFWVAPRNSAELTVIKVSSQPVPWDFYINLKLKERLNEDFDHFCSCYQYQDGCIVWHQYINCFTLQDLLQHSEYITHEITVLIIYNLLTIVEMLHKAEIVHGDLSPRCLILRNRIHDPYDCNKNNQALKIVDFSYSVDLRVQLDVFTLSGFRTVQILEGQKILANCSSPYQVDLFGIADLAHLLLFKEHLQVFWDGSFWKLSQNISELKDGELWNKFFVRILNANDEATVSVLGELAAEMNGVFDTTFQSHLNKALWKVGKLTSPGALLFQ

target: endogenously FLAG-tagged UBR5 (human) (UniProt O95071); experiment: affinity purification with mass spectrometry

Question: For “PLK1 (from UniProt P53350 1-603) (enzyme)”, which binding is on record?
Answer: binds

Question: With BUB3 (from UniProt O43684 1-328) as the substance, how does the binding read?
Answer: binds

Question: With BUB1 (from UniProt O43683 1-1085) as the substance, how does the binding read?
Answer: binds

Question: Which binding does the source give for KIF2A (from UniProt O00139 1-706) here?
Answer: binds

Question: With BUBR1 (from UniProt O60566 1-1050) as the substance, how does the binding read?
Answer: binds
